Results deposited as PubChem BioAssay AID1259308 (NCATS, 2017)
Screen: 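Genes whose loss raises luciferase production in HEK293 cells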 (primary screen). System: human HEK293 embryonic kidney cells stably expressing firefly luciferase (HEK-CMV-Luc2-Hygro). Reagents: single siRNA against human genes, 0.8 pmol siRNA per well. Time to read-out: 72 h. Read-out: 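Reporter luminescence and viable-cell signal on separate replicate plates, given as percent of non-targeting control and median/MAD z-scores, plus per-cell luciferase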. Direction: total luciferase, z-score and total luciferase, % of control: higher = more reporter protein produced; luciferase per cell, z-score: higher = more reporter output per viable cell; viable cells, % of control: higher = more viable cells. Hit rule: 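Active when the median/MAD z-score for overall luciferase is greater than 3; a gene was taken forward for validation with new siRNAs if at least two of its three siRNAs passed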. Meaning of the calls: active = raised luciferase; inactive = no rise.
The deposit covers about 59,000 reagents; below is a part drawn at random. About 1,510 of them (2.6%) count as active. 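Calls use total luciferase alone and ignore viability, so some active siRNAs may act by altering cell number.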 The numbers tell different reagents against one gene apart.

no.	gene symbol	reagent	total luciferase, z-score	total luciferase, % of control	luciferase per cell, z-score	viable cells, % of control	outcome
1	ACAD10	1	0.0726	83.3	-0.151	96.9	inactive
2	ACAD10	2	-0.898	64	-0.731	86.7	inactive
3	ACAD10	3	-0.284	76.2	-0.594	99.6	inactive
4	F2	1	-0.993	62.1	-1.1	92.8	inactive
5	F2	2	-0.179	78.3	-0.479	99.3	inactive
6	F2	3	0.68	95.4	0.874	84.7	inactive
7	GPR174	1	-0.485	72.2	-0.934	103	inactive
8	GPR174	2	-0.531	71.3	-0.818	98.9	inactive
9	GPR174	3	0.0604	83.1	-0.0465	94	inactive
10	HMGA1	1	-0.514	71.7	-0.848	100	inactive
11	HMGA1	2	-0.294	76	-0.926	108	inactive
12	HMGA1	3	-0.0759	80.4	1.17	65.9	inactive
13	GGN	1	-0.652	68.9	-0.578	89.7	inactive
14	GGN	2	2.42	130	2.19	81.8	inactive
15	GGN	3	2.32	128	2.6	72.1	inactive
16	ERI1	1	-0.796	66.1	-0.122	76.2	inactive
17	ERI1	2	0.0752	83.4	-0.386	103	inactive
18	ERI1	3	0.122	84.3	-0.651	112	inactive
19	NDUFB11	1	0.0421	82.7	-0.25	98.7	inactive
20	NDUFB11	2	0.0294	82.5	0.24	86.5	inactive
21	NDUFB11	3	2.31	128	1.9	86.7	inactive

Entries listed so far whose gene name starts with G or g:
gene symbol	reagent	total luciferase, z-score	total luciferase, % of control	luciferase per cell, z-score	viable cells, % of control	outcome
GPR174	1	-0.485	72.2	-0.934	103	inactive
GPR174	2	-0.531	71.3	-0.818	98.9	inactive
GPR174	3	0.0604	83.1	-0.0465	94	inactive
GGN	1	-0.652	68.9	-0.578	89.7	inactive
GGN	2	2.42	130	2.19	81.8	inactive
GGN	3	2.32	128	2.6	72.1	inactive

The list goes on.
no.	gene symbol	reagent	total luciferase, z-score	total luciferase, % of control	luciferase per cell, z-score	viable cells, % of control	outcome
22	COG1	1	-2.26	36.9	-1.75	65.4	inactive
23	COG1	2	1.26	107	2.21	66.8	inactive
24	COG1	3	0.353	88.9	-0.0416	100	inactive
25	IQCF1	1	1.35	109	1.65	78.7	inactive
26	IQCF1	2	1.19	105	2.17	66.5	inactive
27	IQCF1	3	0.444	90.7	0.716	84	inactive
28	CTPS1	1	-0.856	64.9	-0.781	89	inactive
29	CTPS1	2	0.391	89.7	-0.239	107	inactive
30	CTPS1	3	2.22	126	1.47	95.6	inactive
31	FMN1	1	-0.0325	81.2	-0.281	97.7	inactive
32	FMN1	2	-0.905	63.9	-1.21	98.1	inactive
33	FMN1	3	0.491	91.7	0.169	98	inactive
34	FMN1	4	1.5	112	1.38	86.8	inactive
35	FMN1	5	1.23	106	1.14	88.1	inactive
36	FMN1	6	-0.448	73	-0.252	87.1	inactive
37	SPART	1	-0.174	78.4	-0.786	108	inactive
38	SPART	2	-0.297	76	-1.19	116	inactive
39	SPART	3	0.627	94.4	0.138	102	inactive
